The values below come from paper PMC7210110.

Results are given in words; binding and its absence hold for the method and conditions named. In cells and extracts the contact can be indirect. Some binding calls cover weakened binding; strength is not graded here. Sequences can lack the tags named with a protein.

The target of experiment [1] is T1, AtHAK1 fused to the N-terminal or the C-terminal fragment of Venus, in Nicotiana benthamiana leaf cells (Arabidopsis) (UniProt C0LGD7).
T1 sequence: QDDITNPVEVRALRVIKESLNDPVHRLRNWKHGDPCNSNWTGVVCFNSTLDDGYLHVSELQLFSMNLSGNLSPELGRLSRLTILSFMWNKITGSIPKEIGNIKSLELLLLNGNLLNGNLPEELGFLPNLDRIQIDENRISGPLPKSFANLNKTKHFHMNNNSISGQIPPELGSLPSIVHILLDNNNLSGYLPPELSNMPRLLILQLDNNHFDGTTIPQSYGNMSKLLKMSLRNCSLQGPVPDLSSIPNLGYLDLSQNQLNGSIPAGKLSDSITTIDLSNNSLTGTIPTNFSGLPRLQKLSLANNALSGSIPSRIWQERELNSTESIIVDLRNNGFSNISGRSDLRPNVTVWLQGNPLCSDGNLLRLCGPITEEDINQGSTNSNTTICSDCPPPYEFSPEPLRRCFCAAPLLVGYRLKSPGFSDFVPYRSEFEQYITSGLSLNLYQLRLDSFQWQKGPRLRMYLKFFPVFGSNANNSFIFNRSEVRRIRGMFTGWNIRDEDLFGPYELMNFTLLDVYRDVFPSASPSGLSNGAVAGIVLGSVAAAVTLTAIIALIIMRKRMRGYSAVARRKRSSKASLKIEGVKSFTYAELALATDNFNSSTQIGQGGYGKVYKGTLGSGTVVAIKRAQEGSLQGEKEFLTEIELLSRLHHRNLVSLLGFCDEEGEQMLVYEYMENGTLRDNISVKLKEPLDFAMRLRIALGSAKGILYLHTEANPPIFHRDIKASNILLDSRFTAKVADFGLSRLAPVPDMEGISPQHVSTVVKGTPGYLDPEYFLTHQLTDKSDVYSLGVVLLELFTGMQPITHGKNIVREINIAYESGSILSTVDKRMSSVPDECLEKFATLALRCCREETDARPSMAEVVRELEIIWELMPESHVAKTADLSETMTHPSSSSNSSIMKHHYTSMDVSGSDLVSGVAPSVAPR
The experiment in a line: split reporter; BiFC with nVenus and cVenus fusions co-expressed in N. benthamiana leaf cells by A. tumefaciens-mediated transient expression.

The target of experiment [2] is T2, AtHAK1, FLAG-tagged copy and 3xHA-tagged copy, in Nicotiana benthamiana leaf extract (Arabidopsis) (UniProt C0LGD7).
T2 sequence: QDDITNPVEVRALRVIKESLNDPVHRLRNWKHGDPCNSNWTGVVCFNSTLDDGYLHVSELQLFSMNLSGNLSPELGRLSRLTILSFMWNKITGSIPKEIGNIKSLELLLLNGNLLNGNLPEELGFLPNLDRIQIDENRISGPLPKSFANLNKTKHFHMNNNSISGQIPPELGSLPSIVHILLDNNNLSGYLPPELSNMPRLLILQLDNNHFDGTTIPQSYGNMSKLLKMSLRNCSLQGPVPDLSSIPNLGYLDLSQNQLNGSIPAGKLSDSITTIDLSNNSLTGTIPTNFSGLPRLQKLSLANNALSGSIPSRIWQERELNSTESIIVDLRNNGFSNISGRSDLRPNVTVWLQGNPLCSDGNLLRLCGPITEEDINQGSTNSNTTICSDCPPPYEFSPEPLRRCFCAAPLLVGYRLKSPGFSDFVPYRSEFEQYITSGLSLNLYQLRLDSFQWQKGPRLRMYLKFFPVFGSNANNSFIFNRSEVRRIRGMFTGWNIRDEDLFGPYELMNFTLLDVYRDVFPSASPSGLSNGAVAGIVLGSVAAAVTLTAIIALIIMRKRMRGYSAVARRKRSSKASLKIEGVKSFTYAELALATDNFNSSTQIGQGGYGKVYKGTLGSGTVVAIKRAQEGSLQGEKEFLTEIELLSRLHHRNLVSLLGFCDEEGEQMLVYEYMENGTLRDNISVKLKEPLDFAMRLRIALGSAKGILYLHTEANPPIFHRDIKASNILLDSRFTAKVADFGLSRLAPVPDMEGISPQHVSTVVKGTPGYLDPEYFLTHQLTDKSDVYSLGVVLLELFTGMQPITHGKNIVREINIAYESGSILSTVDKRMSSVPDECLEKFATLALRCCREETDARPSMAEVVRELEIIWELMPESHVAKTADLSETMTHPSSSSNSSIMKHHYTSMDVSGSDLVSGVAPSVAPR
In words: co-IP; FLAG- and 3xHA-tagged proteins expressed in N. benthamiana leaves; total protein extract (50 mM Tris-HCl pH 7.5, 150 mM NaCl, 1% NP-40) precipitated overnight at 4 °C with anti-DYKDDDDK-tag magnetic beads; blots with anti-HA and anti-FLAG.

B1: AtHAK1 fused to the N-terminal or the C-terminal fragment of Venus, in Nicotiana benthamiana leaf cells (receptor, UniProt C0LGD7 29-953)
chain: QDDITNPVEVRALRVIKESLNDPVHRLRNWKHGDPCNSNWTGVVCFNSTLDDGYLHVSELQLFSMNLSGNLSPELGRLSRLTILSFMWNKITGSIPKEIGNIKSLELLLLNGNLLNGNLPEELGFLPNLDRIQIDENRISGPLPKSFANLNKTKHFHMNNNSISGQIPPELGSLPSIVHILLDNNNLSGYLPPELSNMPRLLILQLDNNHFDGTTIPQSYGNMSKLLKMSLRNCSLQGPVPDLSSIPNLGYLDLSQNQLNGSIPAGKLSDSITTIDLSNNSLTGTIPTNFSGLPRLQKLSLANNALSGSIPSRIWQERELNSTESIIVDLRNNGFSNISGRSDLRPNVTVWLQGNPLCSDGNLLRLCGPITEEDINQGSTNSNTTICSDCPPPYEFSPEPLRRCFCAAPLLVGYRLKSPGFSDFVPYRSEFEQYITSGLSLNLYQLRLDSFQWQKGPRLRMYLKFFPVFGSNANNSFIFNRSEVRRIRGMFTGWNIRDEDLFGPYELMNFTLLDVYRDVFPSASPSGLSNGAVAGIVLGSVAAAVTLTAIIALIIMRKRMRGYSAVARRKRSSKASLKIEGVKSFTYAELALATDNFNSSTQIGQGGYGKVYKGTLGSGTVVAIKRAQEGSLQGEKEFLTEIELLSRLHHRNLVSLLGFCDEEGEQMLVYEYMENGTLRDNISVKLKEPLDFAMRLRIALGSAKGILYLHTEANPPIFHRDIKASNILLDSRFTAKVADFGLSRLAPVPDMEGISPQHVSTVVKGTPGYLDPEYFLTHQLTDKSDVYSLGVVLLELFTGMQPITHGKNIVREINIAYESGSILSTVDKRMSSVPDECLEKFATLALRCCREETDARPSMAEVVRELEIIWELMPESHVAKTADLSETMTHPSSSSNSSIMKHHYTSMDVSGSDLVSGVAPSVAPR
As for B1, in experiment [1], the binding result is “binds”.

B2: AtPBL27, 3xHA-tagged, in Nicotiana benthamiana leaf extract (protein, UniProt Q1PDV6 1-513)
chain: MSGCLPCFGSSAKDAASKDSVKKELSAKDGSVTQSHHISLDKSKSRRGPEQKKELTAPKEGPTAHIAAQTFTFRELAAATKNFRPECLLGEGGFGRVYKGRLETTGQIVAVKQLDRNGLQGNREFLVEVLMLSLLHHPNLVNLIGYCADGDQRLLVYEYMPLGSLEDHLHDLPPDKEPLDWSTRMTIAAGAAKGLEYLHDKANPPVIYRDLKSSNILLGDGYHPKLSDFGLAKLGPVGDKTHVSTRVMGTYGYCAPEYAMTGQLTLKSDVYSFGVVFLELITGRKAIDNARAPGEHNLVAWARPLFKDRRKFPKMADPSLQGRYPMRGLYQALAVAAMCLQEQAATRPLIGDVVTALTYLASQTFDPNAPSGQNSRSGSGPPFIRTRDDRRSLGDGSSLDSPAETRSRLGSPATHKNSPDYRRRDMVREVNAGSEGGSETGGGSGRKWGLSDLEGQESQRGSPASVGRSSRGTPRNRDLDRERAVAEAKVWGENWRERKRATNGPGSFDSTND
Take B2: the binding result in experiment [2] is “binds”.

B3: AtPBL27 fused to the C-terminal fragment of Venus, in Nicotiana benthamiana leaf cells (protein, UniProt Q1PDV6 1-513)
chain: MSGCLPCFGSSAKDAASKDSVKKELSAKDGSVTQSHHISLDKSKSRRGPEQKKELTAPKEGPTAHIAAQTFTFRELAAATKNFRPECLLGEGGFGRVYKGRLETTGQIVAVKQLDRNGLQGNREFLVEVLMLSLLHHPNLVNLIGYCADGDQRLLVYEYMPLGSLEDHLHDLPPDKEPLDWSTRMTIAAGAAKGLEYLHDKANPPVIYRDLKSSNILLGDGYHPKLSDFGLAKLGPVGDKTHVSTRVMGTYGYCAPEYAMTGQLTLKSDVYSFGVVFLELITGRKAIDNARAPGEHNLVAWARPLFKDRRKFPKMADPSLQGRYPMRGLYQALAVAAMCLQEQAATRPLIGDVVTALTYLASQTFDPNAPSGQNSRSGSGPPFIRTRDDRRSLGDGSSLDSPAETRSRLGSPATHKNSPDYRRRDMVREVNAGSEGGSETGGGSGRKWGLSDLEGQESQRGSPASVGRSSRGTPRNRDLDRERAVAEAKVWGENWRERKRATNGPGSFDSTND
B3: in experiment [1], the binding entry is reported as “binds”.
